Drawing on PubChem BioAssay AID248 (DTP/NCI, 2004), this text covers T/C and survivor count for 16 compounds.

This assay deals with L1210 leukemia ip in BDF1 mice, survival T/C. Description: NCI In Vivo Anticancer Drug Screen. Data for tumor model L1210 Leukemia (intraperitoneal) in B6D2F1 (BDF1) mice. The following applies: T/C endpoint: mean survival time, higher T/C = longer survival.
[1] abbreviates: dose: 100.0 mg/kg/injection, schedule: Q01DX009 (ip), vehicle: saline.
The mark [2] stands for this setting: dose: 400.0 mg/kg/injection, schedule: Q01DX009 (ip), vehicle: saline.
Setting [3] is: dose: 200.0 mg/kg/injection, schedule: Q04DX003 (ip), vehicle: Klucel (hydroxypropylcellulose) (HPC).
Where [4] appears, read: dose: 400.0 mg/kg/injection, schedule: Q04DX003 (ip), vehicle: Klucel (hydroxypropylcellulose) (HPC).
[5] abbreviates: dose: 50.0 mg/kg/injection, schedule: Q01DX009 (ip), vehicle: saline.

The list shows only some results of the screen, not a fair sample: it gathers tests that were run many times, whatever their T/C, doses with no T/C, and many T/C values between a quarter and a half above the control. Other doses and runs of a compound stand elsewhere. T/C is the treated group as % of the vehicle group. Some doses have a count of surviving animals in place of a T/C: the source holds a T/C of zero for them, seemingly a mark for toxic or unscored doses. Some survivor counts are full or nearly so, which does not show that the dose was tolerated: survival well below the control is almost never listed, so the zero probably covers shortened survival too. Survivors were counted at the toxicity check, usually on the fifth day, unless a day is given; later deaths do not show. Schedules are NCI's codes, read here as Q, the interval in days (D) or hours (H), X, the number of doses. Some schedules carry Z or #; the key to these is not given. Marks such as (2×) count equal records among those shown. Some doses were run more than once; their values stand side by side, smallest first. Where survival is the endpoint, this PubChem deposit counts one and a half times the control or more as active, and values a quarter to a half above the control carry no call in these data; other NCI protocols may use other cut-offs. Some T/C values carry the count of animals alive at the toxicity check (mostly the fifth day); without a count, all were alive then.

As to `NC(N)=NO`, the T/C by setting is: (dose: 75.0 mg/kg/injection, schedule: Q01DX Z (ip), vehicle: other) 129 % of control [4 of 6 alive]; under setting [1], 139 % of control; (dose: 150.0 mg/kg/injection, schedule: Q01DX009 (ip), vehicle: saline) 128 % of control; (dose: 200.0 mg/kg/injection, schedule: Q01DX009 (ip), vehicle: saline) 133 and 134 % of control; (dose: 200.0 mg/kg/injection, schedule: Q01DX Z (ip), vehicle: saline) 125 % of control; (dose: 288.0 mg/kg/injection, schedule: Q01DX009 (ip), vehicle: saline) 127 % of control. The T/C is 136 % of control (dose: 300.0 mg/kg/injection, schedule: Q01DX009 (ip), vehicle: saline); 139 % of control under setting [2]; 128 % of control [9 of 10 alive] (dose: 400.0 mg/kg/injection, schedule: Q01DX Z (ip), vehicle: saline); 130 % of control (dose: 433.0 mg/kg/injection, schedule: Q01DX009 (ip), vehicle: saline). In addition, the survivor count under setting [2] is listed as 3 of 10; the survivor count (dose: 500.0 mg/kg/injection, schedule: Q01DX Z (ip), vehicle: saline) was 0 of 10; the survivor count (dose: 600.0 mg/kg/injection, schedule: Q01DX009 (ip), vehicle: saline) is given as 0 of 10; the survivor count (dose: 600.0 mg/kg/injection, schedule: Q01DX Z (ip), vehicle: saline) is recorded as 0 of 10; the survivor count (dose: 650.0 mg/kg/injection, schedule: Q01DX009 (ip), vehicle: saline) was 4 of 10; the survivor count (dose: 732.0 mg/kg/injection, schedule: Q03HX024 (ip), vehicle: saline) is listed as 0 of 10. Moreover, the survivor count reads like this: (dose: 800.0 mg/kg/injection, schedule: Q01DX009 (ip), vehicle: saline) 0 of 10; (dose: 800.0 mg/kg/injection, schedule: Q04DX003 (ip), vehicle: saline) 0 of 10; (dose: 975.0 mg/kg/injection, schedule: Q01DX009 (ip), vehicle: saline) 0 of 10; (dose: 1463.0 mg/kg/injection, schedule: Q01DX009 (ip), vehicle: saline) 0 of 10.

Turning to `CC(C)(Cc1ccc(F)cc1)NCc1ccccc1`, the survivor count is, setting by setting: (dose: 100.0 mg/kg/injection, schedule: Q01DX009 (ip), vehicle: Klucel (hydroxypropylcellulose) (HPC)) 5 of 6; under setting [3], 3 of 6; under setting [4], 0 of 6.

With `Nc1ccccc1SC(CC(=O)c1ccccc1)c1ccc([N+](=O)[O-])cc1` (stereo unspecified), the survivor count (dose: 200.0 mg/kg/injection, schedule: Q01DX005 (ip), vehicle: Klucel (hydroxypropylcellulose) (HPC)) was 3 of 3.

On to `CN(C)CCCc1c2ccccc2nc2ccc(Cl)cc12`, for which the survivor count under setting [5] is listed as 5 of 6; the survivor count (dose: 100.0 mg/kg/injection, schedule: Q04DX003 (ip), vehicle: saline) is reported as 3 of 6; the survivor count (dose: 200.0 mg/kg/injection, schedule: Q04DX003 (ip), vehicle: saline) is 0 of 6; the survivor count (dose: 400.0 mg/kg/injection, schedule: Q04DX003 (ip), vehicle: saline) is reported as 0 of 6.

`c1ccc(C(C2=NCCN2)c2ccccc2)cc1`: the survivor count is, setting by setting: (dose: 200.0 mg/kg/injection, schedule: Q01DX009 (ip), vehicle: Klucel (hydroxypropylcellulose) (HPC)) 0 of 6; under setting [3], 0 of 6; under setting [4], 0 of 6.

Consider `Cc1ccc2cccnc2c1N` (tested in a mixture with another compound), for which the survivor count is, setting by setting: (dose: 50.0 mg/kg/injection, schedule: Q01DX009 (ip), vehicle: DMSO) 4 of 6; (dose: 100.0 mg/kg/injection, schedule: Q01DX009 (ip), vehicle: DMSO) 1 of 6; (dose: 200.0 mg/kg/injection, schedule: Q04DX003 (ip), vehicle: DMSO) 6 of 6; (dose: 400.0 mg/kg/injection, schedule: Q04DX003 (ip), vehicle: DMSO) 4 of 6.

Turning to `COc1cc(C2NC(=S)NC2=S)ccc1O` (stereo unspecified), the survivor count is, setting by setting: (dose: 100.0 mg/kg/injection, schedule: Q01DX009 (ip), vehicle: saline with Tween-80) 6 of 6; (dose: 200.0 mg/kg/injection, schedule: Q04DX003 (ip), vehicle: saline with Tween-80) 6 of 6; (dose: 400.0 mg/kg/injection, schedule: Q04DX003 (ip), vehicle: saline with Tween-80) 3 of 6.

Turning to `O=C(O)c1ccc(C(Cl)(Cl)Cl)cc1`, under setting [4], the survivor count is recorded as 0 of 6.

On to `c1ccc(N/N=C(\C(=N\Nc2ccccc2)c2ccccc2)c2ccccc2)cc1`, for which the survivor count (dose: 100.0 mg/kg/injection, schedule: Q01DX001 (ip), vehicle: Klucel (hydroxypropylcellulose) (HPC)) is 6 of 6.

Turning to `S=C(SC(=S)N(C1CCCCC1)C1CCCCC1)N(C1CCCCC1)C1CCCCC1`, the survivor count (dose: 200.0 mg/kg/injection, schedule: Q01DX009 (ip), vehicle: saline with Tween-80) is 6 of 6 and the survivor count (dose: 400.0 mg/kg/injection, schedule: Q01DX009 (ip), vehicle: saline with Tween-80) is reported as 6 of 6.

In the case of `CCN1CCc2cc3c(cc2C1)OCO3`, the survivor count was 2 of 6 (dose: 100.0 mg/kg/injection, schedule: Q01DX001 (ip), vehicle: carboxymethylcellulose (CMC)); 0 of 6 (dose: 200.0 mg/kg/injection, schedule: Q01DX001 (ip), vehicle: carboxymethylcellulose (CMC)); 0 of 6 (dose: 400.0 mg/kg/injection, schedule: Q01DX001 (ip), vehicle: carboxymethylcellulose (CMC)).

Turning to `O=S(=O)(Nc1ccc(C(F)(F)F)cc1)c1ccc(C(F)(F)F)cc1`, under setting [4], the survivor count was 0 of 6.

As to `CCN(CC)CCCC(C)Nc1cccc2c1C(=O)c1cccc(NC(C)CCCN(CC)CC)c1C2=O` (stereo unspecified), the survivor count under setting [5] is 0 of 3 and 1 of 3; the survivor count under setting [1] is recorded as 0 of 3; the survivor count (dose: 100.0 mg/kg/injection, schedule: Q04DX002 (ip), vehicle: saline) was 1 of 3 and 3 of 3; the survivor count (dose: 200.0 mg/kg/injection, schedule: Q04DX002 (ip), vehicle: saline) is 0 of 3 and 1 of 3; the survivor count (dose: 400.0 mg/kg/injection, schedule: Q04DX002 (ip), vehicle: saline) was 0 of 3 (2×).

Turning to `CN(N=O)C(=O)NCCOC(=O)N(C)N=O`, the survivor count is recorded as 6 of 6 (dose: 25.0 mg/kg/injection, schedule: Q01DX Z (ip), vehicle: carboxymethylcellulose (CMC)); 2 of 6 (dose: 50.0 mg/kg/injection, schedule: Q01DX Z (ip), vehicle: carboxymethylcellulose (CMC)); 0 of 6 (dose: 100.0 mg/kg/injection, schedule: Q01DX Z (ip), vehicle: carboxymethylcellulose (CMC)).

For the compound `S=C(c1ccco1)N1CCOCC1`, the survivor count (dose: 300.0 mg/kg/injection, schedule: Q01DX009 (ip), vehicle: saline with Tween-80) is listed as 4 of 6.

For `CN(C)C1C(=O)C(C(=O)NCNC(CCS)C(=O)O)=C(O)C2(O)C(=O)C3=C(O)c4c(O)cccc4C(C)(O)C3CC12` (stereo unspecified), under “dose: 640.0 mg/kg/injection, schedule: Q01DX Z (ip), vehicle: saline”, the T/C is 125 % of control.
